The subject of the test is BDF1 mice, B16 melanoma ip, median survival T/C. Nature of the test: NCI In Vivo Anticancer Drug Screen. Data for tumor model B16 Melanoma (intraperitoneal) in B6D2F1 (BDF1) mice. The conditions noted are these: T/C endpoint: median survival time, higher T/C = longer survival. In outline:
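Values are ratios of treated (T) to vehicle-control (C) measurements of survival or tumor size in tumor-bearing mice.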

Setting [1] is: dose: 6.25 mg/kg/injection, schedule: Q01DX009 (ip), vehicle: saline with Tween-80.
Where [2] appears, read: dose: 12.5 mg/kg/injection, schedule: Q01DX009 (ip), vehicle: saline with Tween-80.
[3] abbreviates: dose: 100.0 mg/kg/injection, schedule: Q01DX009 (ip), vehicle: saline with Tween-80.
Where [4] appears, read: dose: 200.0 mg/kg/injection, schedule: Q01DX009 (ip), vehicle: saline with Tween-80.
Where [5] appears, read: dose: 400.0 mg/kg/injection, schedule: Q01DX009 (ip), vehicle: saline with Tween-80.
Where [6] appears, read: dose: 25.0 mg/kg/injection, schedule: Q01DX009 (ip), vehicle: saline with Tween-80.
[7] abbreviates: dose: 50.0 mg/kg/injection, schedule: Q01DX009 (ip), vehicle: saline with Tween-80.

The list is a part of this screen's results and no random one: it gathers tests that were run many times, whatever their T/C, doses with no T/C, and many T/C values between a quarter and a half above the control. Further doses and runs are listed elsewhere. T/C gives the treated animals as a percentage of the vehicle group. Some entries give survivors of the animals treated and no T/C: the source files T/C as zero there, which appears to mark a toxic dose or a test without result, not a measured value. Some survivor counts are full or nearly so, which does not show that the dose was tolerated: the source hardly ever lists a survival T/C far under the control, and the zero likely stands for such cases as well. Counts of survivors are from the toxicity check (mostly the fifth day) where no day follows; animals may have died later. Schedule codes are those of the source, taken here to give the interval after Q, in days (D) or hours (H), and the number of doses after X. For survival time, the PubChem record calls one and a half times the control and up active, and a quarter to a half above the control has no call in these data; cut-offs in other NCI protocols can differ. Some T/C values are followed by the survivors on the day toxicity was checked, most often the fifth; where none is given, no animal had died by that day.

The record followed here is PubChem BioAssay AID192 (DTP/NCI, 2004).

Consider `O=C1c2ccccc2C(=O)C(Cl)C1Cl` (stereo unspecified), for which the survivor count (dose: 0.78 mg/kg/injection, schedule: Q01DX009 (ip), vehicle: saline with Tween-80) is on record as 10 of 10; the survivor count (dose: 1.56 mg/kg/injection, schedule: Q01DX009 (ip), vehicle: saline with Tween-80) is recorded as 10 of 10; the survivor count (dose: 3.13 mg/kg/injection, schedule: Q01DX009 (ip), vehicle: saline with Tween-80) is listed as 10 of 10; the survivor count under setting [1] was 10 of 10; the survivor count (dose: 7.2 mg/kg/injection, schedule: Q01DX009 (ip), vehicle: saline) is on record as 9 of 10; the survivor count (dose: 11.0 mg/kg/injection, schedule: Q01DX009 (ip), vehicle: saline) is 0 of 10. The survivor count under setting [2] is recorded as 4 of 10 and the survivor count (dose: 16.0 mg/kg/injection, schedule: Q01DX009 (ip), vehicle: saline) is given as 0 of 10.

For the molecule `CCCOC(=O)c1nc(N(CC2CCCCC2)C(=O)NC)sc1/N=C/c1ccccc1`, the survivor count reads like this: under setting [3], 10 of 10; under setting [4], 10 of 10; under setting [5], 10 of 10.

Regarding `CCOC(=O)c1[nH]c(C#N)c(C(=O)OCC)c1C`, the survivor count is reported as 10 of 10 under setting [3], 10 of 10 under setting [4] and 10 of 10 under setting [5].

As for `ClC(Cl)(Cl)Sn1cccn1`, the survivor count under setting [2] was 10 of 10, the survivor count under setting [6] was 9 of 10 and the survivor count under setting [7] was 7 of 10.

Turning to `O=C1C(Br)=C(Br)C(=O)C1(Br)Br`, the survivor count (dose: 12.5 mg/kg/injection, schedule: Q04DX003 (ip), vehicle: saline with Tween-80) is given as 6 of 10.

As for `CCC1CN2CCC3(C(=O)Nc4ccccc43)C2CC1/C(=C/OC)C(=O)OC` (stereo unspecified), the survivor count runs as follows: under setting [3], 3 of 10; under setting [4], 0 of 10; under setting [5], 0 of 10.

As for `N=C(N)c1nn(C2OC(CO)C(O)C2O)c2ncnc(N)c12` (stereo unspecified), the survivor count is, setting by setting: (dose: 6.25 mg/kg/injection, schedule: Q01DX009 (ip), vehicle: Klucel (hydroxypropylcellulose) (HPC)) 10 of 10; (dose: 50.0 mg/kg/injection, schedule: Q01DX009 (ip), vehicle: Klucel (hydroxypropylcellulose) (HPC)) 2 of 10.

With `COc1c2occc2cc2ccc(=O)oc12`, under setting [7], the T/C was 125 % of control [9 of 10 alive]. Further, the survivor count (dose: 256.0 mg/kg/injection, schedule: Q01DX009 (ip), vehicle: saline with Tween-80) is reported as 6 of 10.

On to `OCC1OC(n2cnc3c(SCc4ccccc4)ncnc32)C(O)C1O` (stereo unspecified), for which the T/C is 129 % of control (dose: 75.0 mg/kg/injection, schedule: Q01DX009 (ip), vehicle: saline with Tween-80) and 145 % of control (dose: 150.0 mg/kg/injection, schedule: Q01DX009 (ip), vehicle: saline with Tween-80). Under “dose: 300.0 mg/kg/injection, schedule: Q01DX009 (ip), vehicle: saline with Tween-80”, the survivor count is listed as 8 of 9.

Regarding `CCCCCCCCCCCCCCCCCCCCCC(=O)Nc1ccn(C2OC(CO)C(O)C2O)c(=O)n1` (stereo unspecified), the T/C was 127 % of control under setting [1], 143 % of control under setting [2], 141 % of control [9 of 10 alive] under setting [6] and 143 % of control under setting [4].

For the molecule `O=c1ccc(N=Nc2ccccc2)ccc1Cl`, the survivor count is 10 of 10 (dose: 2.5 mg/kg/injection, schedule: Q01DX009 (ip), vehicle: Klucel (hydroxypropylcellulose) (HPC)); 10 of 10 (dose: 5.0 mg/kg/injection, schedule: Q01DX009 (ip), vehicle: Klucel (hydroxypropylcellulose) (HPC)); 9 of 9 (dose: 10.0 mg/kg/injection, schedule: Q01DX009 (ip), vehicle: Klucel (hydroxypropylcellulose) (HPC)).

Turning to `O=C(NC(CSCc1ccccc1)C(=O)O)OCc1ccccc1` (stereo unspecified), the survivor count under setting [4] is given as 9 of 10.

As for `CN1CCc2cc3c(cc2C1)OCO3`, the survivor count (dose: 200.0 mg/kg/injection, schedule: Q01DX009 (ip), vehicle: saline) was 0 of 10.

As to `C[CH2][Pb]([Br])([CH2]C)[CH2]C`, under setting [7], the survivor count is reported as 10 of 10.

Turning to `O=C1C(NC(=O)C2CCCCC2)=C(N2CC2)C(=O)C(NC(=O)C2CCCCC2)=C1N1CC1`, the survivor count (dose: 100.0 mg/kg/injection, schedule: Q01DX009 (ip), vehicle: Klucel (hydroxypropylcellulose) (HPC)) was 10 of 10 and the survivor count (dose: 200.0 mg/kg/injection, schedule: Q01DX009 (ip), vehicle: Klucel (hydroxypropylcellulose) (HPC)) was 6 of 10.

Consider `COC1=C(OC)C(=O)C(SC/C=C(\C)CCCC(C)CCCC(C)CCCC(C)C)=CC1=O` (stereo unspecified), for which the survivor count under setting [4] is recorded as 10 of 10.
